# Inconclusive means that the source gave no clear call. Potencies beside an inconclusive call are fits to weak or partial responses and may not hold up.
# Amino acid sequences for entries named in this document (tags omitted). A change or cut given only in a name is not applied to a line headed by its entry.
# UniProt P34981: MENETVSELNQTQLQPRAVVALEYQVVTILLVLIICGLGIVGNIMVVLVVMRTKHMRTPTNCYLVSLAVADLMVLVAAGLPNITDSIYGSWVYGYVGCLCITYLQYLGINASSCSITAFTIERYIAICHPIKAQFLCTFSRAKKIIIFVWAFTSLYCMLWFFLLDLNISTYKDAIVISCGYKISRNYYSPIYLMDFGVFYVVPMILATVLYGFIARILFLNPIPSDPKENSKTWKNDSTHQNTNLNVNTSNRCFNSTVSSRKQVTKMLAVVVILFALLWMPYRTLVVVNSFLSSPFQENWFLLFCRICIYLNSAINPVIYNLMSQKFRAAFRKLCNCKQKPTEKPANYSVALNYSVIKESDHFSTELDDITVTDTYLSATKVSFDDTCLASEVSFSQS
# Target: Thyrotropin-releasing hormone receptor (Homo sapiens) (UniProt P34981)
# Assay: qHTS for Small Molecule Agonists and Allosteric Enhancers of Human TRH Receptor: Confirmation Screen for Enhancers
# Details: TRH receptor cell assay, enhancer confirmation qHTS; active = well fitted curve in the direction sought with a large enough effect; inconclusive = small, poorly fitted or top-dose-only effect, or effect the other way, or another doubt; inactive = no such curve, though single readings can be large or run the other way
# Text: NIH Chemical Genomics Center [NCGC]
# NIH Molecular Libraries Probe Centers Network [MLPCN]
# Assay Submitter (PI): Marvin Gershengorn
# This project aims to identify small drug-like molecules that activate (agonists) the thyrotropin releasing hormone (TRH) receptor (TRHR) or enhance its TRH-stimulated activity (allosteric enhancers). TRHR, a drug-accessible cell surface receptor expressed in specific brain regions, and its ligand TRH have been implicated in several central nervous system disorders, including depression and anxiety. Small molecule TRHR agonists or allosteric enhancers that are metabolically stable and able to cross the blood-brain barrier might serve as probes to elucidate the roles of brain TRH receptors in animal models, and might be valuable as lead compounds for the development of drugs to treat patients with central nervous system disorders.
# Upon TRHR-Gq activation in TRHR cells, intracellular calcium is released from stores in the endoplasmic reticulum. […] This primary screen measures compound-induced enhancement of an EC20 stimulation of the receptor by its native ligand.
# For the HTS assay freshly prepared cells are plated at a density of 2000/well in 3 ul of complete DMEM medium containing 10% serum in 1536-well plates and cultured over night at 37 C in a humidified incubator with 5% CO2. The next day, 2 ul of a no wash calcium dye (ABD Bioquest) was added to the cells and plates were incubated at room temperature for 1 hour. For the assay, assay plates were loaded into the FDSS kinetic plate reader. A 10 cycle (1 second/cycle) baseline measurement is taken and then the FDSS online 1536 pintool delivers 23 nl of compound library (as well as TRH controls) to the plate. The plate is measured for kinetically at 1 cycle/sec for 180 seconds and is considered to be the agonist portion of the assay (eg, compounds which activate a positive calcium response during this portion are flagged as potential agonists). Following the 180 second read, 1 ul of either an EC20 (positive modulation assay) is delivered by an onboard pipette head. Measurements are taken kinetically for an additional 180 seconds.
# TRHR FDSS Screening Protocol
# 1. Reagent, 3 uL 2000 cells/well 1536 TC treated Black plate in media containing 10% FCS
# 2. Time, 18 hours, 33.5C 5% CO2 (cells grown at 37C)
# 3. Reagent, 2 uL ABD fluo-8 Ca dye
# 4. Time, 30 min-1.5hrs hours, Room temp (6 plates/batch)
# 5. Detector, EX 480/EM 530C, FDSS 10 cycles baseline (1sec/cycle)
# 6. Compound, 23 nL of stock solution from library
# 7. Detector, EX 480/EM 530C, FDSS 230 cycles (1sec/cycle) Agonist mode
# 8. Compound, 1 ul EC20 of TRH made up in HEPES HBSS, 10 nM final
# 9. Detector, EX 480/EM 530C, FDSS 100 cycles (1sec/cycle) Potentiator mode
row,SMILES,Potency
1,Cc1ccccc1-n1c(O)c(/C=C/C=Nc2ccccc2)c(=O)[nH]c1=O,"inconclusive: 651 nM [activator, full curve, poor fit]"
2,COc1ccc(N=Cc2c(O)n(-c3ccc(C)cc3)c(=O)[nH]c2=O)cc1,"inconclusive: 206 nM [activator, full curve, poor fit]"
3,CCNC(=O)[C@H]1O[C@@H](n2cnc3c(N)ncnc32)[C@H](O)[C@@H]1O,"inconclusive: 517 nM [activator, full curve]"
4,O=C(CN1CC=C(c2ccccc2)CC1)NC(=O)NCc1ccccc1,"inconclusive: 13 nM [activator, full curve, poor fit]"
5,C=C(CC1CC(O)[C@]2(C)OC3CC4OC5C[C@]6(C)O[C@]7(C)CCC8OC9C[C@]%10(C)OC%11C(C)=CC(=O)OC%11CC%10OC9C[C@@H](C)C8OC7CC6O[C@]5(C)C/C=C\C4OC3CC2O1)C(=O)O (stereo not given in full),"inconclusive: 29100 nM [activator, partial curve, poor fit]"

# Reference: PubChem BioAssay AID493076 (National Center for Advancing Translational Sciences (NCATS), 2011)
